Assay results published in patent publication US11230581B2, “Peptides and combination of peptides for use in immunotherapy against ovarian cancer and other cancers” (Immatics Biotechnologies GmbH, priority 2015, dated 2022).

Experiments:
ovarian cancer samples = test: Relative LC-MS quantitation of HLA-presented peptides: presentation and over-presentation on ovarian cancer vs a panel of normal tissues (presentation score); design: species or system human; key: +++: very highly over-presented on tumors compared to a panel of normal tissues; ++: highly over-presented on tumors compared to a panel of normal tissues; +: over-presented on tumors compared to a panel of normal tissues; settings: over-presentation on tumors compared to a panel of normal tissues
additional tumor types = test: LC-MS detection and over-presentation of the peptides on additional tumor types, cell lines and primary cultures; design: species or system human; settings: for Other relevant organs/ cancerous diseases: Table 4A: additional tumor types on which the peptide was found, over-presented on more than 5% of measured tumor samples, or presented on more than 5% with ratio of geometric means tumor vs normal tissues larger than 3
[1] = amendment of Table 4: additional tumor types showing over-presentation (including specific presentation) on more than 5% of measured tumor samples, or presentation on more than 5% with ratio of geometric means tumor vs normal tissues larger than 3
[2] = additional tumor types with over-presentation on more than 5% of the measured tumor samples, or presentation on more than 5% with ratio of geometric means tumor vs normal tissues larger than 3

| Substance | Peptide Presentation (presentation score) (ovarian cancer samples) | Additional organs/cancerous diseases (additional tumor types; [1]) | Other relevant organs/ cancerous diseases (additional tumor types) | Additional organs/cancerous diseases (additional tumor types; [2]) |
| --- | --- | --- | --- | --- |
| 160 (FLFDEEIEQI; listed as Homo sapiens) [compound 160] | ++ | BRCA |  |  |
| 222 (NLIENVQRL; listed as Homo sapiens) [compound 222] | ++ |  | NSCLC, RCC, CRC, HCC, Melanoma, Esophageal Cancer, Urinary bladder Cancer |  |
| 523 (YQIPRTFTL; listed as Homo sapiens) [compound 523] | + |  | SCLC, Brain Cancer, HCC, Leukemia, Melanoma | CLL, AML |
| 511 (FLDPYCSASV; listed as Homo sapiens) [compound 511] | +++ |  |  | SCLC, Uterine Cancer |
| 508 (ILAQEQLVVGV; listed as Homo sapiens) [compound 508] | +++ |  | Leukemia, Esophageal Cancer | SCLC, Gallbladder Cancer and Bile Duct Cancer |
| 224 (TLIDAQWVL; listed as Homo sapiens) [compound 224] | +++ |  |  | HNSCC |
| 65 (LKVNQGLESL; listed as Homo sapiens) [compound 65] | +++ | Melanoma, Gallbladder Cancer and Bile Duct Cancer, AML, NHL | NSCLC, SCLC, PC, Leukemia, BrCa, Esophageal Cancer |  |
| 499 (KIFDIDEAEEGV; listed as Homo sapiens) [compound 499] | +++ |  | PC, Melanoma, Esophageal Cancer |  |
| 565 (ALQETPTSV; listed as Homo sapiens) [compound 565] | ++ |  | SCLC, Melanoma, Esophageal Cancer, Uterine Cancer | BRCA, Gallbladder Cancer and Bile Duct Cancer |
| 492 (SLFDGFADGLGV; listed as Homo sapiens) [compound 492] | +++ |  | NSCLC, SCLC, Brain Cancer, HCC, PrC, Esophageal Cancer | BRCA |
| 490 (FLLQHVQEL; listed as Homo sapiens) [compound 490] | +++ |  | Leukemia | CLL, NHL |
| 525 (VLLEAGEGLVTI; listed as Homo sapiens) [compound 525] | + |  | Melanoma | NSCLC, SCLC, CLL, Urinary Bladder Cancer, Uterine Cancer, NHL, HNSCC |
| 118 (KLIDNNINV; listed as Homo sapiens) [compound 118] | +++ |  | Brain Cancer |  |
| 385 (SLLEQGLVEA; listed as Homo sapiens) [compound 385] | + |  | NSCLC, SCLC, Brain Cancer, HCC, Esophageal Cancer, Uterine Cancer, Gallbladder Cancer, Bile Duct Cancer | BRCA, AML, HNSCC |
| 450 (FMIDASVHPTL; listed as Homo sapiens) [compound 450] | +++ |  | NSCLC, SCLC, RCC, Brain Cancer, CRC, HCC, Leukemia, Melanoma, Esophageal Cancer | CLL, Urinary Bladder Cancer, HNSCC |
| 478 (YLLHEKLNL; listed as Homo sapiens) [compound 478] | +++ |  |  | NHL |
| 606 (ALWETEVYI; listed as Homo sapiens) [compound 606] | ++ |  | SCLC, Brain Cancer, HCC, PrC |  |
| 639 (SLFQNCFEL; listed as Homo sapiens) [compound 639] | + |  | Leukemia | CLL, Melanoma, Uterine Cancer, NHL, HNSCC |
| 234 (ALMEDTGRQML; listed as Homo sapiens) [compound 234] | +++ |  | NSCLC, SCLC, HCC, Esophageal Cancer | Brain Cancer, Urinary Bladder Cancer, Gallbladder Cancer and Bile Duct Cancer, HNSCC |
| 630 (LLSHVIVAL; listed as Homo sapiens) [compound 630] | + |  | PC, Leukemia | CLL, Gallbladder Cancer and Bile Duct Cancer, NHL |
| 72 (SLLELDGINL; listed as Homo sapiens) [compound 72] | +++ | BRCA, Uterine Cancer | NSCLC, SCLC, Prostate |  |

| Substance | Peptide Presentation (presentation score) (ovarian cancer samples) | Additional organs/cancerous diseases (additional tumor types; [1]) | Other relevant organs/ cancerous diseases (additional tumor types) | Additional organs/cancerous diseases (additional tumor types; [2]) |
| --- | --- | --- | --- | --- |
| 216 (NLWEDPYYL; listed as Homo sapiens) [compound 216] | +++ |  | SCLC, PrC, BrCa, Urinary bladder Cancer |  |
| 6 (VLVSDGVHSV; listed as Homo sapiens) [compound 6] | +++ | Melanoma, Urinary Bladder Cancer, Uterine Cancer, HNSCC | SCLC, Brain Cancer, BrCa, MCC, Esophageal Cancer |  |
| 256 (FLPPEHTIVYI; listed as Homo sapiens) [compound 256] | +++ |  | SCLC, HCC, Leukemia, Melanoma | CLL, Uterine Cancer |
| 155 (RVANLHFPSV; listed as Homo sapiens) [compound 155] | + | CLL, HNSCC | Melanoma, Esophageal Cancer |  |
| 263 (LLVSNLDFGV; listed as Homo sapiens) [compound 263] | +++ |  | NSCLC, SCLC, RCC, Leukemia | CRC, CLL, Urinary Bladder Cancer, AML, NHL |
| 242 (AIAYILQGV; listed as Homo sapiens) [compound 242] | +++ |  | SCLC, Leukemia, BrCa, Esophageal Cancer, Urinary bladder Cancer | RCC, CRC, CLL, Melanoma, Uterine Cancer, AML, NHL, HNSCC |
| 278 (QLLDVVLTI; listed as Homo sapiens) [compound 278] | + |  |  | HNSCC |
| 357 (SMHDLVLQV; listed as Homo sapiens) [compound 357] | ++ |  | Brain Cancer, PC, Endometrium |  |
| 397 (YLFGERLLEC; listed as Homo sapiens) [compound 397] | + |  | Colon, Rectum, Leukemia | CLL, Uterine Cancer |
| 563 (WLLPYNGVTV; listed as Homo sapiens) [compound 563] | + |  | SCLC, Melanoma | CLL, Uterine Cancer, NHL |
| 137 (TLVLTLPTV; listed as Homo sapiens) [compound 137] | +++ | SCLC, CLL, Urinary Bladder Cancer, Uterine Cancer, Gallbladder Cancer and Bile HDuct Cancer, AML, NHL, NSCC |  |  |
| 331 (KVDTVWVNV; listed as Homo sapiens) [compound 331] | + |  | SCLC, Leukemia, BrCa, Melanoma, Urinary bladder Cancer | CLL, Gallbladder Cancer and Bile Duct Cancer, HNSCC |
| 120 (ALLGIPLTLV; listed as Homo sapiens) [compound 120] | +++ | Uterine Cancer |  |  |
| 520 (LAVHPSGVAL; listed as Homo sapiens) [compound 520] | ++ |  | Leukemia | SCLC, CLL, BRCA, Gallbladder Cancer and Bile Duct Cancer |
| 186 (TLFFQQNAL; listed as Homo sapiens) [compound 186] | + |  |  | PC, NHL, HNSCC |
| 464 (ALNDCIYSV; listed as Homo sapiens) [compound 464] | +++ |  | Brain Cancer, HCC, PC | HNSCC |
| 138 (YQYPRAILSV; listed as Homo sapiens) [compound 138] | +++ | NSCLC, AML |  |  |
| 251 (ALYTGFSILV; listed as Homo sapiens) [compound 251] | +++ |  | SCLC, Leukemia, Melanoma |  |
| 423 (GLDGPPPTV; listed as Homo sapiens) [compound 423] | +++ |  | HCC, PC, BrCa, Urinary bladder Cancer, Uterine Cancer, Gallbladder Cancer, Bile Duct Cancer | NHL |
| 28 (QLLDETSAITL; listed as Homo sapiens) [compound 28] | +++ | CLL | SCLC, HCC, Leukemia, Urinary bladder Cancer |  |
